# According to the supplement of paper PMC8728848:
# The list shows a part of the results.
# B1: Pwp6 (Candida glabrata) (protein)
# chain: MGSSHHHHHHSSGLVPRGSHMASANLPKLTNICQIPDNVKKTSGFKGEIRRIGLFPPGGDYTYLLKFPSTGSTASDTISLTTKPQLSTSGWFPSLFGHTYFIKADLLVYMVAYFVPTETGEYTFKLVNSDDAAVMYVGNPSAFPCGSIDTWPEPRKEDINVCDKISASTKLYMEKGLAYPVRLVWYNGGGDGQFNAQFIDPSGTTHTDWNGYVWQYDACTDCDYK
# How the values were obtained:
# Assay in all cases: glycan array binding signal (z-score within array); higher = stronger binding
# Details in all cases: glycan notation: IUPAC condensed, linker removed
# [1] = molecular target: Neu5Ac(a2-3)Gal(b1-3)]Neu5Ac(a2-3)Gal(b1-4)]GlcNAc
# Method in brief: (§1)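 From the Consortium for Functional Glycomics database, 3228 arrays were curated, keeping only those whose protein sequence was available. Binding is given as a within-array Z-score averaged across arrays sharing a protein sequence and across linkers. Negative Z-scores can be read as non-binding.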
# Neu5Ac(a2-3)Gal(b1-4)Glc = molecular target: Neu5Ac(a2-3)Gal(b1-4)Glc
# Method in brief: as §1
# [2] = molecular target: Neu5Ac(a2-3)Gal(b1-4)GlcNAc
# Method in brief: as §1
# [3] = molecular target: Neu5Ac(a2-3)Gal(b1-4)GlcNAc(b1-2)Man
# Method in brief: as §1
# [4] = molecular target: Neu5Ac(a2-3)Gal(b1-4)GlcNAc(b1-2)Man(a1-3)[GlcNAc(b1-4)][Neu5Ac(a2-3)Gal(b1-4)GlcNAc(b1-2)Man(a1-6)]Man(b1-4)GlcNAc(b1-4)GlcNAc
# Method in brief: as §1
# [5] = molecular target: Neu5Ac(a2-3)Gal(b1-4)GlcNAc(b1-2)Man(a1-3)[Neu5Ac(a2-3)Gal(b1-4)GlcNAc(b1-2)Man(a1-6)]Man(b1-4)GlcNAc(b1-4)GlcNAc
# Method in brief: as §1
# [6] = molecular target: Neu5Ac(a2-3)Gal(b1-4)GlcNAc(b1-2)Man(a1-3)[Neu5Ac(a2-3)Gal(b1-4)GlcNAc(b1-2)Man(a1-6)]Man(b1-4)GlcNAc(b1-4)[Fuc(a1-6)]GlcNAc
# Method in brief: as §1
# [7] = molecular target: Neu5Ac(a2-3)Gal(b1-4)GlcNAc(b1-2)Man(a1-3)[Neu5Ac(a2-6)Gal(b1-4)GlcNAc(b1-2)Man(a1-6)]Man(b1-4)GlcNAc(b1-4)GlcNAc
# Method in brief: as §1
# [8] = molecular target: Neu5Ac(a2-3)Gal(b1-4)GlcNAc(b1-2)[Neu5Ac(a2-3)Gal(b1-4)GlcNAc(b1-4)]Man(a1-3)[GlcNAc(b1-4)][Neu5Ac(a2-3)Gal(b1-4)GlcNAc(b1-2)[Neu5Ac(a2-3)Gal(b1-4)GlcNAc(b1-6)]Man(a1-6)]Man(b1-4)GlcNAc(b1-4)GlcNAc
# Method in brief: as §1
# [9] = molecular target: Neu5Ac(a2-3)Gal(b1-4)GlcNAc(b1-2)[Neu5Ac(a2-3)Gal(b1-4)GlcNAc(b1-4)]Man(a1-3)[GlcNAc(b1-4)][Neu5Ac(a2-3)Gal(b1-4)GlcNAc(b1-4)Man(a1-6)]Man(b1-4)GlcNAc(b1-4)GlcNAc
# Method in brief: as §1
# [10] = molecular target: Neu5Ac(a2-3)Gal(b1-4)GlcNAc(b1-2)[Neu5Ac(a2-3)Gal(b1-4)GlcNAc(b1-6)]Man(a1-6)[Neu5Ac(a2-3)Gal(b1-4)GlcNAc(b1-2)Man(a1-3)][GlcNAc(b1-4)]Man(b1-4)GlcNAc(b1-4)GlcNAc
# Method in brief: as §1
# [11] = molecular target: Neu5Ac(a2-3)Gal(b1-4)GlcNAc(b1-3)Gal
# Method in brief: as §1
# [12] = molecular target: Neu5Ac(a2-3)Gal(b1-4)GlcNAc(b1-3)Gal(b1-3)GlcNAc
# Method in brief: as §1
# [13] = molecular target: Neu5Ac(a2-3)Gal(b1-4)GlcNAc(b1-3)Gal(b1-4)GlcNAc
# Method in brief: as §1
# [14] = molecular target: Neu5Ac(a2-3)Gal(b1-4)GlcNAc(b1-3)Gal(b1-4)GlcNAc(b1-2)Man(a1-3)[Neu5Ac(a2-3)Gal(b1-4)GlcNAc(b1-3)Gal(b1-4)GlcNAc(b1-2)Man(a1-6)]Man(b1-4)GlcNAc(b1-4)GlcNAc
# Method in brief: as §1
# [15] = molecular target: Neu5Ac(a2-3)Gal(b1-4)GlcNAc(b1-3)Gal(b1-4)GlcNAc(b1-3)Gal(b1-4)GlcNAc
# Method in brief: as §1
# [16] = molecular target: Neu5Ac(a2-3)Gal(b1-4)GlcNAc(b1-3)Gal(b1-4)GlcNAc(b1-3)Gal(b1-4)GlcNAc(b1-2)Man(a1-3)[Neu5Ac(a2-3)Gal(b1-4)GlcNAc(b1-3)Gal(b1-4)GlcNAc(b1-3)Gal(b1-4)GlcNAc(b1-2)Man(a1-6)]GalNAc
# Method in brief: as §1
# [17] = molecular target: Neu5Ac(a2-3)Gal(b1-4)GlcNAc(b1-3)Gal(b1-4)GlcNAc(b1-3)GalNAc
# Method in brief: as §1
# [18] = molecular target: Neu5Ac(a2-3)Gal(b1-4)GlcNAc(b1-3)Gal(b1-4)GlcNAc(b1-3)[Neu5Ac(a2-3)Gal(b1-4)GlcNAc(b1-3)Gal(b1-4)GlcNAc(b1-6)]GalNAc
# Method in brief: as §1
# [19] = molecular target: Neu5Ac(a2-3)Gal(b1-4)GlcNAc(b1-3)Gal(b1-4)GlcNAc(b1-6)[Gal(b1-3)]GalNAc
# Method in brief: as §1
# [20] = molecular target: Neu5Ac(a2-3)Gal(b1-4)GlcNAc(b1-3)Gal(b1-4)[Fuc(a1-3)]GlcNAc
# Method in brief: as §1
# [21] = molecular target: Neu5Ac(a2-3)Gal(b1-4)GlcNAc(b1-3)GalNAc
# Method in brief: as §1
# [22] = molecular target: Neu5Ac(a2-3)Gal(b1-4)GlcNAc(b1-3)[Neu5Ac(a2-3)Gal(b1-4)GlcNAc(b1-6)]GalNAc
# Method in brief: as §1
# [23] = molecular target: Neu5Ac(a2-3)Gal(b1-4)GlcNAc(b1-6)GalNAc
# Method in brief: as §1
# [24] = molecular target: Neu5Ac(a2-3)Gal(b1-4)GlcNAc(b1-6)[Gal(b1-3)]GalNAc
# Method in brief: as §1
# [25] = molecular target: Neu5Ac(a2-3)Gal(b1-4)GlcNAc(b1-6)[Neu5Ac(a2-3)Gal(b1-3)]GalNAc
# Method in brief: as §1
# [26] = molecular target: Neu5Ac(a2-3)Gal(b1-4)GlcNAc6S
# Method in brief: as §1
# [27] = molecular target: Neu5Ac(a2-3)Gal(b1-4)[Fuc(a1-3)]GlcNAc
# Method in brief: as §1
# [28] = molecular target: Neu5Ac(a2-3)Gal(b1-4)[Fuc(a1-3)]GlcNAc(b1-2)Man
# Method in brief: as §1
# [29] = molecular target: Neu5Ac(a2-3)Gal(b1-4)[Fuc(a1-3)]GlcNAc(b1-3)Gal
# Method in brief: as §1
# [30] = molecular target: Neu5Ac(a2-3)Gal(b1-4)[Fuc(a1-3)]GlcNAc(b1-3)Gal(b1-4)GlcNAc
# Method in brief: as §1
# [31] = molecular target: Neu5Ac(a2-3)Gal(b1-4)[Fuc(a1-3)]GlcNAc(b1-3)Gal(b1-4)[Fuc(a1-3)]GlcNAc(b1-3)Gal(b1-4)[Fuc(a1-3)]GlcNAc
# Method in brief: as §1
# [32] = molecular target: Neu5Ac(a2-3)Gal(b1-4)[Fuc(a1-3)]GlcNAc(b1-3)GalNAc
# Method in brief: as §1
# [33] = molecular target: Neu5Ac(a2-3)Gal(b1-4)[Fuc(a1-3)]GlcNAc(b1-6)[Gal(b1-3)]GalNAc
# Method in brief: as §1
# [34] = molecular target: Neu5Ac(a2-3)Gal(b1-4)[Fuc(a1-3)]GlcNAc(b1-6)[Neu5Ac(a2-3)Gal(b1-3)]GalNAc
# Method in brief: as §1
# [35] = molecular target: Neu5Ac(a2-3)Gal(b1-4)[Fuc(a1-3)]GlcNAc6S
# Method in brief: as §1
# [36] = molecular target: Neu5Ac(a2-3)Gal6S(b1-4)GlcNAc
# Method in brief: as §1
# [37] = molecular target: Neu5Ac(a2-3)Gal6S(b1-4)[Fuc(a1-3)]GlcNAc
# Method in brief: as §1
binder,measurement,setting,value
B1,glycan array binding signal (z-score),[1],1.28
same,glycan array binding signal (z-score),Neu5Ac(a2-3)Gal(b1-4)Glc,-0.477
same,glycan array binding signal (z-score),[2],-0.63
same,glycan array binding signal (z-score),[3],0.737
same,glycan array binding signal (z-score),[4],-0.385
same,glycan array binding signal (z-score),[5],4.2
same,glycan array binding signal (z-score),[6],-0.488
same,glycan array binding signal (z-score),[7],0.345
same,glycan array binding signal (z-score),[8],0.477
same,glycan array binding signal (z-score),[9],0.259
same,glycan array binding signal (z-score),[10],1.89
same,glycan array binding signal (z-score),[11],-0.537
same,glycan array binding signal (z-score),[12],-0.451
same,glycan array binding signal (z-score),[13],-0.592
same,glycan array binding signal (z-score),[14],0.992
same,glycan array binding signal (z-score),[15],0.324
same,glycan array binding signal (z-score),[16],1.69
same,glycan array binding signal (z-score),[17],0.749
same,glycan array binding signal (z-score),[18],0.745
same,glycan array binding signal (z-score),[19],0.556
same,glycan array binding signal (z-score),[20],0.372
same,glycan array binding signal (z-score),[21],-0.205
same,glycan array binding signal (z-score),[22],0.666
same,glycan array binding signal (z-score),[23],0.53
same,glycan array binding signal (z-score),[24],2.67
same,glycan array binding signal (z-score),[25],0.065
same,glycan array binding signal (z-score),[26],-0.548
same,glycan array binding signal (z-score),[27],-0.312
same,glycan array binding signal (z-score),[28],-0.225
same,glycan array binding signal (z-score),[29],-0.253
same,glycan array binding signal (z-score),[30],2.78
same,glycan array binding signal (z-score),[31],-0.179
same,glycan array binding signal (z-score),[32],1.46
same,glycan array binding signal (z-score),[33],-0.222
same,glycan array binding signal (z-score),[34],1.32
same,glycan array binding signal (z-score),[35],1.61
same,glycan array binding signal (z-score),[36],-0.567
same,glycan array binding signal (z-score),[37],-0.396

# A portion from the list above, as a working copy:
binder,measurement,setting,value
B1,glycan array binding signal (z-score),[14],0.992
same,glycan array binding signal (z-score),[15],0.324
